At least one compound was matched to its structure with a doubt left.
Tested on: marrow stromal cells
Experiment: Osteogenic differentiation of marrow stromal cells (marker not specified: ALP activity, osteocalcin mRNA, mineral formation)
Format: cell-based, mouse
Method: The purpose of the study was to identify other osteogenic and anti-adipogenic oxysterols based on the chemical structure of previously identified oxysterols. The ability of such candidate oxysterol molecules to induce the formation of osteoblastic cells in cultures of marrow stromal cells (which are progenitors of osteoblastic cells that make bone) were tested. In order to assess osteogenic differentiation of cells, one or more markers of osteogenic differentiation were measured in untreated cells and cells treated with the test oxysterols. These markers included: alkaline phosphatase activity, osteocalcin mRNA expression and mineral formation in cultures of marrow stromal cells. Activation of either one or more than one marker by a single or combination oxysterols is indicative of their osteogenic property.

## C[C@]12CC[C@@H]3c4ccc(O)cc4CC[C@H]3[C@@H]1CCC2=O [estrone, reference compound]
  osteogenic properties: did not have any osteogenic properties

— patent US20090220562A1, “Osteogenic and anti-adipogenic oxysterols” (priority 2005, published 2009)
